In PubChem BioAssay (NCATS):
Several values for one entry are separate records, joined by “and”; a condition that tells them apart may be missing. Equal entries are not always repeated. The list shows a part of the results. Shown are side measurements of this screen, not its main read-out; they come without a call. Compounds called inactive in the main read-out are mostly missing here. For some assays here: The note in brackets gives the kind of curve behind each potency; many fits are weak.

Experiments:
[1] = qHTS assay for small molecule antagonists of peroxisome proliferator-activated receptor gamma signaling (AID 588537); conditions: HEK293 PPARg-UAS-bla, beta-lactamase ratio, antagonist mode; measured here: W460 blue channel
Summary of the method: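 Read-out: CCF4 fluorescence (ex 405, em 460/530 nm) after 2 h at RT. Cells were HEK293 carrying a UAS-bla reporter and treated 16 h at 37 C with compound plus rosiglitazone (50 nM final). Normalized to rosiglitazone and DMSO.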

[2] = qHTS assay for small molecule agonists of retinoid X receptor alpha signaling (AID 588544); conditions: HEK293T RXRa-UAS-bla, beta-lactamase reporter, 18 h; 530 nm emission
[3] = qHTS assay for small molecule antagonists of retinoid X receptor alpha signaling (AID 588546); conditions: HEK293T RXRa-UAS-bla, beta-lactamase ratio, antagonist mode; measured here: W530 green channel, cytotoxicity proxy;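 note: cells stimulated with 9-cis-retinoic acid as agonist; % is set by controls: 0 for no effect and ±100 for the full control effect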
Summary of the method: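 Beta-lactamase reporter inhibition, read as CCF4 fluorescence ratio (ex 405, em 460/530 nm) after 2 h at RT. HEK293T UAS-bla cells, 2500/well, were stimulated with 9-cis-RA at 500 or 100 nM final alongside test compound for 18 h at 37 C.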

[4] = qHTS assay for small molecule antagonists of vitamin D receptor signaling (AID 588541); conditions: HEK293T VDR-UAS-bla, beta-lactamase ratio, antagonist mode; measured here: W460 blue channel (cell viability)
[5] = S16 Schwann cell PMP22 intronic element beta-lactamase assay (AID 624044); conditions: S16 rat Schwann cells, PMP22 element beta-lactamase FRET, 24 h
Summary of the method: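 Beta-lactamase reporter under a PMP22 intronic regulatory element in stable S16 rat Schwann cells; 24 h compound exposure. 460 nm blue signal normalized between DMSO (0%) and potassium clavulanate, with 535 nm FRET tracking viability; curves classed by r2 and response.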

[6] = measured here: 460 nm blue channel

Compound: CCCCCOC(=O)COc1cc(N2C(=O)C3=C(CCCC3)C2=O)c(F)cc1Cl
- AC50 [1]: 2.24 µM [falling, full curve, poor fit]
- max response [2]: 7.62%
- max response [3]: 13%

Compound: O=C(O)c1cc(-c2ccccc2)nc2ccccc12
- AC50 [4]: 25.1 µM [rising, single point]

Compound: O=C(O)CN(CC(=O)O)CC(=O)O
- AC50 [1]: 0.0631 µM [falling, full curve, poor fit]
- max response [2]: -8.57%
- max response [3]: -10.9%

Compound: CCCCCCCCCCCCCCCCCC(N)=O
- AC50 [4]: 50.1 µM [rising, single point]
- max response [2]: -19.3%
- max response [3]: 4.05%

Compound: CS(=O)(=O)OCCCCOS(C)(=O)=O
- AC50 [1]: 50.1 µM [rising, single point]
- max response [2]: -13.5%
- max response [3]: -12.3%

Compound: C1=C/CC/C=C/CC/C=C/CC/1
- max response [2]: -24.3%

Compound: CCCOC(=O)NCCCN(C)C
- max response [2]: -19.8%

Compound: O=C(Cl)c1ccccc1[N+](=O)[O-]
- AC50 [1]: 50.1 µM [rising, single point]
- max response [3]: -6.66%

Compound: CCCCCCCCCCCO
- AC50 [1]: 0.00158 µM [falling, full curve, poor fit]
- max response [3]: -16.1%

Compound: CCCC/C=C/CCCCO
- AC50 [4]: 25.1 µM [rising, partial curve, poor fit]

Compound: Cc1ccc(C)c([N+](=O)[O-])c1
- AC50 [4]: 0.00282 µM [falling, full curve, poor fit]
- max response [3]: -15.6%

Compound: COc1ccccc1NC(=O)CC(C)=O
- AC50 [1]: 15.8 µM [rising, partial curve, poor fit]
- max response [2]: 8.98%

Compound: Cc1c(C(=O)NCCO)[n+](=O)c2ccccc2n1[O-]
- AC50 [1]: 0.0282 µM [falling, full curve, poor fit]
- AC50 [5, 6]: 12.6 µM [rising, single point]

Compound: C[Si]1(C)O[Si](C)(C)O[Si](C)(C)O[Si](C)(C)O[Si](C)(C)O1
- AC50 [4]: 0.0562 µM [falling, full curve, poor fit]

Compound: Oc1ccc2ccccc2c1N=Nc1ccccc1
- AC50 [1]: 0.00126 µM [falling, full curve, poor fit]
- max response [2]: -17.5%

Compound: CC(=O)c1ccc(S(=O)(=O)NC(=O)NC2CCCCC2)cc1
- AC50 [1]: 0.0447 µM [falling, full curve, poor fit]
- AC50 ([5]; measured here: 530 nm viability channel): 0.00158 µM [falling, full curve, poor fit]

Compound: Brc1cc(Br)c(Oc2cc(Br)c(Br)cc2Br)cc1Br
- AC50 [1]: 50.1 µM [rising, single point]
- max response [3]: 28.1%

Compound: Nc1ccc(S(=O)(=O)O)cc1
- AC50 [1]: 50.1 µM [rising, single point] and 1.58 nM [falling, full curve, poor fit]
- max response [3]: -19.9%

Compound: O=Nc1ccc(NO)cc1
- AC50 [1]: 70.8 µM [rising, single point]
- max response [2]: -10.8%
- max response [3]: -12.2%

Compound: CCCCCCCC/C=C\CCCCCCCC(=O)N(CCO)CCO
- AC50 [1]: 44.7 µM [falling, partial curve, poor fit]
- max response [3]: 32.5%

Compound: O=C(O)c1ccc(S(=O)(=O)N(Cl)Cl)cc1
- AC50 [4]: 0.00562 µM [falling, full curve, poor fit]

Compound: CCCCCCCC(=O)OCC(COC(=O)CCCCCCC)OC(=O)CCCCCCC
- AC50 [1]: 50.1 µM [rising, single point]
- AC50 [5, 6]: 5.01 µM [falling, full curve, poor fit]

Compound: COc1cc(CNC(=O)CCCC/C=C/C(C)C)ccc1O
- AC50 [1]: 50.1 µM [falling, single point]
- max response [3]: 11.6%

Compound: C=C1CC[C@H](O)C/C1=C/C=C1\CCC[C@]2(C)[C@@H]([C@H](C)CCCC(C)C)CC[C@@H]12
- max response [3]: 13.2%

Compound: CC(C)[C@@H]1CC[C@@H](C)C[C@H]1O
- max response [3]: -7.44%

Compound: Brc1ccc(-c2ccccc2)cc1
- max response [3]: -4.11%

Compound: C=C(C)C(=O)OCCCCCC
- max response [3]: -13.9%

Compound: CC(O)CN(CCN(CC(C)O)CC(C)O)CC(C)O (configuration not stated)
- max response [2]: 18%

Compound: CC(=O)[C@H]1[C@H](C#N)C[C@H]2[C@@H]3CC=C4C[C@@H](O)CC[C@]4(C)[C@H]3CC[C@@]21C
- max response [3]: 28.3%

Compound: CCOC(C)=O
- max response [3]: -16.6%

Compound: C=C(C)C(=O)OCC[N+](C)(C)C
- max response [3]: -0.111%

Compound: NC(=S)NNC(N)=S
- max response [3]: 30.6%

Compound: CC1CCCO1 (configuration not stated)
- max response [3]: -4.71%

Compound: c1ccc(Nc2cccc3ccccc23)cc1
- max response [3]: -1.93%

Compound: O=S(c1ccc(Cl)cc1)c1cc(Cl)c(Cl)cc1Cl (configuration not stated)
- max response [2]: 31.1%
- max response [3]: 5.66%

Compound: C/C=C/C=C/C=O
- max response [3]: 0.0091%

Compound: O=S(=O)(O)c1cc(S(=O)(=O)O)c2c(N=Nc3ccccc3)c(O)ccc2c1
- max response [3]: -14.3%

Compound: O=C(Nc1ccccc1)c1ccccc1O
- max response [2]: -18.9%
- max response [3]: -9.03%
